A short description of series [1]: Percent degree of conversion of hexafunctional acrylate resin with photoinitiators. The conditions noted are these: for DC, %: 500 mW/cm^2; for DC (std. dev.): TPO at 3%, triplicate.
The nature of series [2]: Pencil hardness of photoinitiator resins coated on composite disks. The conditions noted are these: 30 seconds at 300 mW/cm^2.
[3] abbreviates: Initiator 3%, EDMAB 0%, 10 sec (no air).
The mark [4] stands for this setting: Initiator 0.2%, EDMAB 1%, 5 sec.
[5] abbreviates: Initiator 0.2%, EDMAB 1%, 10 sec (no air).
The mark [6] stands for this setting: Initiator 0.2%, EDMAB 1%, 10 sec.
Setting [7] is: Initiator 0.2%, EDMAB 1%, 30 sec.

A value given as a limit tells only on which side of the number the result lay.

As to `CC12CCC(C(=O)C1=O)C2(C)C` (stereo not shown) [CQ, camphorquinone], the “DC, %” value was found to be 24% in series [1] (Initiator 1%, EDMAB 1%, 5 sec); 47% in series [1] (Initiator 1%, EDMAB 1%, 10 sec (no air)); 27% in series [1] (Initiator 1%, EDMAB 1%, 10 sec); 30% in series [1] (Initiator 1%, EDMAB 1%, 30 sec); 43% in series [1] (Initiator 3%, EDMAB 3%, 5 sec); 65% in series [1] (Initiator 3%, EDMAB 3%, 10 sec (no air)). The “DC, %” value came to 50% in series [1] (Initiator 3%, EDMAB 3%, 10 sec) and 58% in series [1] (Initiator 3%, EDMAB 3%, 30 sec). Besides, the Pencil hardness in series [2] (Initiator 1%, EDMAB 1%) was 1H; in series [2] (Initiator 3%, EDMAB 3%) it was over 5H.
Regarding `Cc1cc(C)c(C(=O)P(=O)(C(=O)c2c(C)cc(C)cc2C)c2ccccc2)c(C)c1` [Composition 819, bis(2,4,6-trimethylbenzoyl)-phenylphosphineoxide], the “DC, %” value was determined as 44% in series [1] (Initiator 1.5%, EDMAB 0%, 5 sec); 57% in series [1] (Initiator 1.5%, EDMAB 0%, 10 sec (no air)); 47% in series [1] (Initiator 1.5%, EDMAB 0%, 10 sec); 47% in series [1] (Initiator 1.5%, EDMAB 0%, 30 sec); 49% in series [1] (Initiator 3%, EDMAB 0%, 5 sec); 65% in series [1] (setting [3]). In addition, the “DC, %” value in series [1] (Initiator 3%, EDMAB 0%, 10 sec) is 55%; in series [1] (Initiator 3%, EDMAB 0%, 30 sec), 58%. For the same compound, the Pencil hardness in series [2] (Initiator 1.5%, EDMAB 0%) is 4H; in series [2] (Initiator 3%, EDMAB 0%), over 5H.
On to `CCCCOc1ccc2cc3cc(I)c(=O)c(I)c-3oc2c1` [HNu, 5,7-diiodo-3-butoxy-6-fluorone], for which the “DC, %” value in series [1] (setting [4]) turned out to be 0%; in series [1] (setting [5]), 23%; in series [1] (setting [6]), 0%; in series [1] (setting [7]), 0%.
For the compound `O=C1C(=O)c2ccccc2-c2ccccc21` [PAQ, phenanthrenequinone], the “DC, %” value in series [1] (setting [4]) was found to be 0%; in series [1] (setting [5]) it was 33%; in series [1] (setting [6]), 0%; in series [1] (setting [7]) it was 0%.
In the case of `Cc1cc(C)c(C(=O)P(=O)(c2ccccc2)c2ccccc2)c(C)c1` [TPO, 2,4,6-trimethylbenzoyl-diphenylphosphinate], the “DC, %” value was found to be 30% in series [1] (Initiator 2%, EDMAB 0%, 5 sec); 64% in series [1] (Initiator 2%, EDMAB 0%, 10 sec (no air)); 39% in series [1] (Initiator 2%, EDMAB 0%, 10 sec); 39% in series [1] (Initiator 2%, EDMAB 0%, 30 sec); 29% in series [1] (Initiator 3%, EDMAB 0%, 5 sec); 53% in series [1] (setting [3]). Besides, the “DC, %” value came to 52% in series [1] (Initiator 3%, EDMAB 0%, 10 sec) and 52% in series [1] (Initiator 3%, EDMAB 0%, 30 sec). Further, the “DC (std. dev.)” value was 57.4% (1.3%) in series [1] (10 seconds, air absent); 46.9% (3.0%) in series [1] (10 seconds, air present); 51.6% (4.3%) in series [1] (30 seconds, air present). Also, the Pencil hardness in series [2] (Initiator 2%, EDMAB 0%) stood at 4H; in series [2] (Initiator 3%, EDMAB 0%) it was 5H.
As for `CCOP(=O)(C(=O)c1c(C)cc(C)cc1C)c1ccccc1` (stereo not shown) [TPOL, ethyl-2,4,6-trimethylbenzoyl-phenylphosphinate], the “DC, %” value stood at 29% in series [1] (Initiator 3%, EDMAB 0%, 5 sec); 56% in series [1] (setting [3]); 38% in series [1] (Initiator 3%, EDMAB 0%, 10 sec); 57% in series [1] (Initiator 3%, EDMAB 0%, 30 sec). In series [2] (Initiator 3%, EDMAB 0%), this compound had a Pencil hardness of 4H.

Source of the values: patent US7081485B2, “Non-volatile dental compositions containing multifunctional acrylate compounds and lacking an oxygen-inhibited layer” (Bisco, Inc., priority 2002, dated 2006).
